{"source": "patent US6703536B2", "about": "“Disposable absorbent article having a skin care composition containing an enzyme inhibitor” (The Procter & Gamble Company, priority 1998, dated 2004)", "target": "protease activity in feces", "assay": "General Fecal Enzymes Method (casein-resorufin cleavage)", "assay_type": "biochemical, infant", "settings": "fecal suspension, casein-resorufin substrate, pH 7.8, 37° C. for 60 minutes", "source_text": "Pooled infant feces (at least five different samples) are collected in a manner to keep them free of urine and contamination and mixed with water to obtain a weight by weight (w/w) mixture (e.g., 1:50 w/w). This mixture is then mixed thoroughly to obtain a homogeneous suspension by homogenization or sonication. […] (Also, to ensure complete linearity the final absorbance should never exceed 1.5 OD405 units). If the activity of the pooled infant feces is outside this range, it is not possible to accurately determine IC50 values for putative protease inhibitors. However, the range of enzyme activity may be adjusted by increasing or decreasing the dilution factor accordingly for each enzyme. If this is not possible, a different group of subjects should be used to obtain the sample pool.\nThe general method described above for obtaining a sample of feces suitable for use in Specific Fecal Enzyme Methods can be easily adapted by one skilled in the art to obtain appropriate samples of feces suitable for use in the General Fecal Enzymes Method listed below without undue experimentation.\nTo test the efficacy of protease inhibitors against the protease activity in feces, 50 μL of inhibitor and 50 μL of fecal suspension are added to a 1.5 mL microcentrifuge tube. The microcentrifuge tube is mixed by inversion and incubated at 25° C. for 45 minutes. […]", "note": "At least one compound was matched to its structure with a doubt left.", "data": [{"smiles": "N=C(N)c1ccc(OCCCCCCOc2ccc(C(=N)N)cc2)cc1", "note": "[Hexamidine]", "values": [{"measurement": "IC50", "result": 31, "unit": "µM"}]}]}
